{
  "sequences": {"note": "Amino acid sequences for entries named in this document (tags omitted). A change or cut given only in a name is not applied to a line headed by its entry.", "UniProt Q5QJ74": "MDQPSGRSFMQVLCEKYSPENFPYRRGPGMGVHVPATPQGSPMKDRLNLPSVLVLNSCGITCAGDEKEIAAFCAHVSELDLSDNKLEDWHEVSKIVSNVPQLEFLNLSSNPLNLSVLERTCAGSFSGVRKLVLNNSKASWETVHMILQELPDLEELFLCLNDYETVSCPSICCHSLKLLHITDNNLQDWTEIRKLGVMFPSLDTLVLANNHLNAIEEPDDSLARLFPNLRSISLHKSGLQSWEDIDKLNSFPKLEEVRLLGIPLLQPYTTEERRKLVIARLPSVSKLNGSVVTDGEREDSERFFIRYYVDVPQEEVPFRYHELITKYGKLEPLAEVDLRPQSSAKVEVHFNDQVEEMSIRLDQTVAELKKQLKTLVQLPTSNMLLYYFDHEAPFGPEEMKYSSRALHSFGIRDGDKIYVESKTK", "UniProt Q13625": "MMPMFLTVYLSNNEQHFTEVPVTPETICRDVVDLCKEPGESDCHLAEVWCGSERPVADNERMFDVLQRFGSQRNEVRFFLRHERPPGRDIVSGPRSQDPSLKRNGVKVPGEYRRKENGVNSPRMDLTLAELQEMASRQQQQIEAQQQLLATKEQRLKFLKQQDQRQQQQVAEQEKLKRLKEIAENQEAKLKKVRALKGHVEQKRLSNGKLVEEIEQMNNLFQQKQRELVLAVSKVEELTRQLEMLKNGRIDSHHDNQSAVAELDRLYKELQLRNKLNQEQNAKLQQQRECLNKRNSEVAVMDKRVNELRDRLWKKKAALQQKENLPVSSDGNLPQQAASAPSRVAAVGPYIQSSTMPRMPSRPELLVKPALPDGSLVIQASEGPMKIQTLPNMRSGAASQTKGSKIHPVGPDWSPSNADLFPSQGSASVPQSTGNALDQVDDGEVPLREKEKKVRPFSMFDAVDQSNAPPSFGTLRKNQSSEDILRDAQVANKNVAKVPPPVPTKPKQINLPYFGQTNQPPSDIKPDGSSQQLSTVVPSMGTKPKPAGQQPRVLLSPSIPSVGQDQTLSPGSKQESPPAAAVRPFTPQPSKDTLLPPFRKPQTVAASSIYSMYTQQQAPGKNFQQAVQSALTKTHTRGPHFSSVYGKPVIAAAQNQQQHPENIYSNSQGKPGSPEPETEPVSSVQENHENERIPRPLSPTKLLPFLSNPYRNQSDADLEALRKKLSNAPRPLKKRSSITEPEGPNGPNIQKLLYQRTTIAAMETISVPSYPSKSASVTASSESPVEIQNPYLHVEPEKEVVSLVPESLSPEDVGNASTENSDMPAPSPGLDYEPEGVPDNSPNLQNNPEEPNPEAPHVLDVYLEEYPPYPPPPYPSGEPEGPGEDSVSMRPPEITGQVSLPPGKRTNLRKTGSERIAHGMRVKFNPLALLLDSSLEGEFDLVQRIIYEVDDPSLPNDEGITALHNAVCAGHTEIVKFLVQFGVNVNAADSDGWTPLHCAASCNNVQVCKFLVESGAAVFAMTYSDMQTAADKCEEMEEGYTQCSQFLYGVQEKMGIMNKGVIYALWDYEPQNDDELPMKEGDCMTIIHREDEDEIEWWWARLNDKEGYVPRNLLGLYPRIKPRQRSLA", "UniProt Q86SZ2": "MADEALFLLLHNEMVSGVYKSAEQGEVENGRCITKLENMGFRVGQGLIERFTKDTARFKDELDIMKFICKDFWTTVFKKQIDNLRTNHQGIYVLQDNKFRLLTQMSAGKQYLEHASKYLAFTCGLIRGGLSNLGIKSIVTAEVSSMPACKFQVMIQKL", "UniProt A5PLN9": "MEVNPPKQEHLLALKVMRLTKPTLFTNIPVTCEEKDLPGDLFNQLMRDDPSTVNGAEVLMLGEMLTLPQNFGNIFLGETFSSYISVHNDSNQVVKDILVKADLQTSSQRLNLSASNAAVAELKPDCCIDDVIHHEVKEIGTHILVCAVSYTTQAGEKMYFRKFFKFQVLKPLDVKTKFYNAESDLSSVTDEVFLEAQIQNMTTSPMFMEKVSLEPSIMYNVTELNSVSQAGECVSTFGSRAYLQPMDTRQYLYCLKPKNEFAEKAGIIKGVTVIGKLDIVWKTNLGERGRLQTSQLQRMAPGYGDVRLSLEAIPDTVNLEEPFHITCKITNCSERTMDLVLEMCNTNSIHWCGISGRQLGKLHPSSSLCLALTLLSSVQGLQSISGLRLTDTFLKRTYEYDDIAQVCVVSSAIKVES", "UniProt Q6PIZ9": "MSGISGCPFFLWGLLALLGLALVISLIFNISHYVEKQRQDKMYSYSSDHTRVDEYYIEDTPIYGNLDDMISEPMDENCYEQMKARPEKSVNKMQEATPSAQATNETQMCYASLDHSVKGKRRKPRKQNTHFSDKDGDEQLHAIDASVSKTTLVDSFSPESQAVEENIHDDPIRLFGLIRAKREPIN", "UniProt Q9GZX9": "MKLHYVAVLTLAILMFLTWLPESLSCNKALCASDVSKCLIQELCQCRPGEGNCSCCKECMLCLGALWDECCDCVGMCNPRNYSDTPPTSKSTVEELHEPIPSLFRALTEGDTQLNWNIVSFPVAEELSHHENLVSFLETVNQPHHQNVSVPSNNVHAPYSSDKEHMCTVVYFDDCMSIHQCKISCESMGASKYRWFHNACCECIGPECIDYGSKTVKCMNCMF", "UniProt Q66K14, whole entry": "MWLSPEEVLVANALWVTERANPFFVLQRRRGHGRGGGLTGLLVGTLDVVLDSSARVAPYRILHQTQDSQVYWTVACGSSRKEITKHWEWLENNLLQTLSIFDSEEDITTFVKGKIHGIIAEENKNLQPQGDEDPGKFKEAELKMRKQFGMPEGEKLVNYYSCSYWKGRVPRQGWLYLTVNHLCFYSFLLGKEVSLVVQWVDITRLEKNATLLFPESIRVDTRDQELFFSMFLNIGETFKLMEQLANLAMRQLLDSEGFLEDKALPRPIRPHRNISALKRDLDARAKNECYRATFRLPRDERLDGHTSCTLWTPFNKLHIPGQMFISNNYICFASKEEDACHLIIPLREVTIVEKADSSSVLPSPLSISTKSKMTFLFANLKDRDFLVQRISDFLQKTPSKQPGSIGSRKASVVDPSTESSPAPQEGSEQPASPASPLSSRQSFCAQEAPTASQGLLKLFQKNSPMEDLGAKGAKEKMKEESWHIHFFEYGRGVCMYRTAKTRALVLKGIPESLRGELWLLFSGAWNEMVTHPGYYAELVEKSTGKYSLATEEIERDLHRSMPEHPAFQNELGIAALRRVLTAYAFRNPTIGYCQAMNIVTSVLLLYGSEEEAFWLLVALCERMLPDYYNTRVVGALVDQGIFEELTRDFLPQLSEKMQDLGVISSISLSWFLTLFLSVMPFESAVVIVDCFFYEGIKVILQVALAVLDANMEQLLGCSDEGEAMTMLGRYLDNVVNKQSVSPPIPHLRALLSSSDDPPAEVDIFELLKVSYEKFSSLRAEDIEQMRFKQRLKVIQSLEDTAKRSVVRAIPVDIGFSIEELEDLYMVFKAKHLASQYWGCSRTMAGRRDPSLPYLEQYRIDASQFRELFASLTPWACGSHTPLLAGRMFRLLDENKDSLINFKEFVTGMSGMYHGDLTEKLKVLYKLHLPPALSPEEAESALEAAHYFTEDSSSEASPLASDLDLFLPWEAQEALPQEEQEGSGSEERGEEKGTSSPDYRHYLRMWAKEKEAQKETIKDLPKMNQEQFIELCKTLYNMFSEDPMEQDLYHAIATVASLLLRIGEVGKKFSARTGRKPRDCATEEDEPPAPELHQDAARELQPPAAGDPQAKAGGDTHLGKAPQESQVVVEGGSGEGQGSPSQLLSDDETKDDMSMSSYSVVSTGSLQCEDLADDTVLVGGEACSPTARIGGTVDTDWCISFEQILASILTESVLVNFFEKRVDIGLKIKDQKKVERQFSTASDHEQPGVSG", "UniProt Q9P016": "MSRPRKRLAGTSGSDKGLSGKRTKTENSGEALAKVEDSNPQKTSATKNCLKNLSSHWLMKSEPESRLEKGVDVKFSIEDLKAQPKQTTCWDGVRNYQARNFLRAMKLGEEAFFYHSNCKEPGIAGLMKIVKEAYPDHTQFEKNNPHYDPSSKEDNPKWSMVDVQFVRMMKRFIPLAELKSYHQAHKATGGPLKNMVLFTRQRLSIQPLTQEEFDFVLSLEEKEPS", "UniProt O43396": "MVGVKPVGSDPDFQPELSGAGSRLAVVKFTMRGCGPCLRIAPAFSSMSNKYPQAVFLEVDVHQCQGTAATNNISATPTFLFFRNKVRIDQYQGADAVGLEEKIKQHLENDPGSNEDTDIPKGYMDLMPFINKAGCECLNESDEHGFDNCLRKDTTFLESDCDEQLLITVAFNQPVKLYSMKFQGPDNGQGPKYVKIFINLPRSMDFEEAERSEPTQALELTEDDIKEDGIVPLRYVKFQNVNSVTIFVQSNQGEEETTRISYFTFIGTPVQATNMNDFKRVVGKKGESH", "UniProt Q8WWH5": "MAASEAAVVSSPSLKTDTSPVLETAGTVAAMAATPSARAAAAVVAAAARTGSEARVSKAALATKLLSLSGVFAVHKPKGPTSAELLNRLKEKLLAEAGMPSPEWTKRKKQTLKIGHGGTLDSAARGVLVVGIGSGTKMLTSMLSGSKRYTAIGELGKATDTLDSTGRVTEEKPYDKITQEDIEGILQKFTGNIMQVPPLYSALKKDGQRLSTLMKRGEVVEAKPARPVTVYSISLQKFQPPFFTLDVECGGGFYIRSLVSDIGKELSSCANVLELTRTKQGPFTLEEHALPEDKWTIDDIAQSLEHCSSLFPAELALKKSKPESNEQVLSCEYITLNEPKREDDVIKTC", "UniProt Q7Z2Z1": "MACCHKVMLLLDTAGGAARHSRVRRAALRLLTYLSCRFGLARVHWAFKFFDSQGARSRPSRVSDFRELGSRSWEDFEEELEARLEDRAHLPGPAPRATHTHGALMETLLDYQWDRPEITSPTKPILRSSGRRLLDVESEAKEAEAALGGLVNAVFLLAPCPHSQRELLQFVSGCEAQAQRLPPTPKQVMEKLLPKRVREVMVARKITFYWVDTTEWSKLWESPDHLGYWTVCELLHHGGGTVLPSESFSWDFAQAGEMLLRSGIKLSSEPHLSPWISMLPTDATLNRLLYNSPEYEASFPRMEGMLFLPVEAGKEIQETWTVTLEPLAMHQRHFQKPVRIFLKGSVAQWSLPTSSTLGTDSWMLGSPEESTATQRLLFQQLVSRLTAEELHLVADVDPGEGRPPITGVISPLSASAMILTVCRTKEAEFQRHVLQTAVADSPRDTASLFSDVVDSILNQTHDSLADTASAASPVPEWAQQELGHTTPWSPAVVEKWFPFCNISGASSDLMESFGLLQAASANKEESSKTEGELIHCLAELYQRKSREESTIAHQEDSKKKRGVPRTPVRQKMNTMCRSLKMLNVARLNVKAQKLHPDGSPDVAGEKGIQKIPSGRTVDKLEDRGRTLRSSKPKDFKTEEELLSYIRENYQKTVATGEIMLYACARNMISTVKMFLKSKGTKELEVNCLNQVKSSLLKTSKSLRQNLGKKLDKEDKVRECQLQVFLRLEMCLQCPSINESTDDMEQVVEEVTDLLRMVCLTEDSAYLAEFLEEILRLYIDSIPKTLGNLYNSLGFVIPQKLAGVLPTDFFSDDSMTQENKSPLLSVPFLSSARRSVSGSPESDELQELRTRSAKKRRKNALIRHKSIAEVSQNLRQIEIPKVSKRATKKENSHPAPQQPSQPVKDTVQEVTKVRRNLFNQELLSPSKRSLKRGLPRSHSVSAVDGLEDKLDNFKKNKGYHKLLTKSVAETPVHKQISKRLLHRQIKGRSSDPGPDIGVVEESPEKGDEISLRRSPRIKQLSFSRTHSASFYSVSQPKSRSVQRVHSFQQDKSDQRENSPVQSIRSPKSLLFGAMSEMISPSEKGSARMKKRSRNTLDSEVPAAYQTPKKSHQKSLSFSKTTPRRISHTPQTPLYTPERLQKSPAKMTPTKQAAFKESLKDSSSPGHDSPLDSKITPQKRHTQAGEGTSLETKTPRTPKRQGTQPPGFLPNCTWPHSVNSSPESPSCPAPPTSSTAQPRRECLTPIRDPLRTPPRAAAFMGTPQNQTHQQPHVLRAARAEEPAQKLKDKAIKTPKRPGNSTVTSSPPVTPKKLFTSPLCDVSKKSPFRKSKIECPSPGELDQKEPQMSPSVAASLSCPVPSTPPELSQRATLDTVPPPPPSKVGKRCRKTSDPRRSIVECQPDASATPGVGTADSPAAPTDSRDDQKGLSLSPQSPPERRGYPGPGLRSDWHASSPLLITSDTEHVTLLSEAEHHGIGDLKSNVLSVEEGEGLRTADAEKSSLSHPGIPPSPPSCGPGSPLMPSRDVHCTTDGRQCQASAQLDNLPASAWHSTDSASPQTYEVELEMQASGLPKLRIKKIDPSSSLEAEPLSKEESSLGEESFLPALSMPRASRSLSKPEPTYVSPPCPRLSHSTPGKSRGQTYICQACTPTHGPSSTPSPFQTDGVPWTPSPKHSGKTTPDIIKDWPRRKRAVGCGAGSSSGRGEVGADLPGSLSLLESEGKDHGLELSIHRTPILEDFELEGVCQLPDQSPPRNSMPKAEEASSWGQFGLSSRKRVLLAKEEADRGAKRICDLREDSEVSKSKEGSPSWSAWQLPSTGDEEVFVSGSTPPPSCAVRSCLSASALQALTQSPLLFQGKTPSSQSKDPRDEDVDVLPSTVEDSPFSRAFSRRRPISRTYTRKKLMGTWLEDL"},
  "source": "the supplement of paper PMC7666118",
  "note": "The other results are listed elsewhere or left out.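 The calls were made as follows: active = dose-dependent thermal stabilisation significant by F-test of dose-response against flat model at 10% FDR; inactive = not significant.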",
  "data": [
    {"compound": "Nc1nc2c(ncn2[C@@H]2O[C@H](COP(=O)(O)OP(=O)(O)OP(=O)(O)O)[C@@H](O)[C@H]2O)c(=O)[nH]1", "assay": "dose-dependent thermal stabilisation call (2D-TPP, DLPTP, 10% FDR) (binary (1 = stabilised)); higher = stabilised by the compound", "settings": "system: Jurkat gel-filtered lysate; concentration range 1-500 µM", "values": [
      {"target": "TBCEL (UniProt Q5QJ74)", "dose-dependent thermal stabilisation call": "active: 1"},
      {"target": "TP53BP2 (UniProt Q13625)", "dose-dependent thermal stabilisation call": "inactive: 0"},
      {"target": "TRAPPC6B (UniProt Q86SZ2)", "dose-dependent thermal stabilisation call": "inactive: 0"},
      {"target": "TFAM (UniProt Q00059)", "dose-dependent thermal stabilisation call": "inactive: 0"},
      {"target": "TLK1 (UniProt Q9UKI8)", "dose-dependent thermal stabilisation call": "active: 1"},
      {"target": "TFE3 (UniProt P19532)", "dose-dependent thermal stabilisation call": "inactive: 0"},
      {"target": "TRAPPC13 (UniProt A5PLN9)", "dose-dependent thermal stabilisation call": "inactive: 0"},
      {"target": "TBC1D23 (UniProt Q9NUY8)", "dose-dependent thermal stabilisation call": "inactive: 0"},
      {"target": "TRAT1 (UniProt Q6PIZ9)", "dose-dependent thermal stabilisation call": "inactive: 0"},
      {"target": "TUBE1 (UniProt Q9UJT0)", "dose-dependent thermal stabilisation call": "active: 1"},
      {"target": "TNRC6C (UniProt Q9HCJ0)", "dose-dependent thermal stabilisation call": "inactive: 0"},
      {"target": "TPMT (UniProt P51580)", "dose-dependent thermal stabilisation call": "inactive: 0"},
      {"target": "TWSG1 (UniProt Q9GZX9)", "dose-dependent thermal stabilisation call": "inactive: 0"},
      {"target": "TCF3 (UniProt P15923)", "dose-dependent thermal stabilisation call": "inactive: 0"},
      {"target": "TBCB (UniProt Q99426)", "dose-dependent thermal stabilisation call": "inactive: 0"},
      {"target": "TBC1D9B (UniProt Q66K14)", "dose-dependent thermal stabilisation call": "inactive: 0"},
      {"target": "TSC2 (UniProt P49815)", "dose-dependent thermal stabilisation call": "inactive: 0"},
      {"target": "TRIP11 (UniProt Q15643)", "dose-dependent thermal stabilisation call": "inactive: 0"},
      {"target": "TMF1 (UniProt P82094)", "dose-dependent thermal stabilisation call": "inactive: 0"},
      {"target": "THYN1 (UniProt Q9P016)", "dose-dependent thermal stabilisation call": "inactive: 0"},
      {"target": "TIPIN (UniProt Q9BVW5)", "dose-dependent thermal stabilisation call": "inactive: 0"},
      {"target": "TATDN2 (UniProt Q93075)", "dose-dependent thermal stabilisation call": "inactive: 0"},
      {"target": "TXNL1 (UniProt O43396)", "dose-dependent thermal stabilisation call": "active: 1"},
      {"target": "TALDO1 (UniProt P37837)", "dose-dependent thermal stabilisation call": "inactive: 0"},
      {"target": "TRIO (UniProt O75962)", "dose-dependent thermal stabilisation call": "inactive: 0"},
      {"target": "TWF2 (UniProt Q6IBS0)", "dose-dependent thermal stabilisation call": "inactive: 0"},
      {"target": "TRIP10 (UniProt Q15642)", "dose-dependent thermal stabilisation call": "inactive: 0"},
      {"target": "TNPO3 (UniProt Q9Y5L0)", "dose-dependent thermal stabilisation call": "active: 1"},
      {"target": "TNIP1 (UniProt Q15025)", "dose-dependent thermal stabilisation call": "inactive: 0"},
      {"target": "TRPT1 (UniProt Q86TN4)", "dose-dependent thermal stabilisation call": "inactive: 0"},
      {"target": "TRUB1 (UniProt Q8WWH5)", "dose-dependent thermal stabilisation call": "active: 1"},
      {"target": "TICRR (UniProt Q7Z2Z1)", "dose-dependent thermal stabilisation call": "inactive: 0"},
      {"target": "TUBGCP2 (UniProt Q9BSJ2)", "dose-dependent thermal stabilisation call": "inactive: 0"},
      {"target": "UBAP2 (UniProt Q5T6F2)", "dose-dependent thermal stabilisation call": "inactive: 0"},
      {"target": "TRAPPC6A (UniProt O75865)", "dose-dependent thermal stabilisation call": "inactive: 0"},
      {"target": "TIMM44 (UniProt O43615)", "dose-dependent thermal stabilisation call": "inactive: 0"}
    ]}
  ]
}
